Measurements as given in patent US20140134183A1 (CELL MEDICA SWITZERLAND, published 2014).
No constants are given. Whether binding was seen depends on the method and setting. Some entries that bind do so weakly or less than the wild type.

By UniProt entry, the sequences of proteins in these tests, tags left out. Residues count along the entry.
UniProt P01584, residues 117-269: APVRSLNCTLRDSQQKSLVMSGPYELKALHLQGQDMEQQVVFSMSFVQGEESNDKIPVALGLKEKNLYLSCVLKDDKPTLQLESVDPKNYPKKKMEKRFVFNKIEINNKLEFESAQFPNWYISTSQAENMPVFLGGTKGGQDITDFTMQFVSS

Tests used:
[1] = molecular target: T1, recombinant human IL-1 beta (human, UniProt P01584 117-269); test: ELISA, cleared E. coli lysate on coated rhIL-1 beta
Procedure: The resulting scFv mutants are expressed in 96-well format in 1 ml cultures in E. coli BL21 (DE3) (Novagen, USA, cat. no. 69450-3). […] Cells were lysed in lysis buffer (1 mM EDTA, 0.1 mg/ml lysozyme, PBS pH 7.2) in a 96-well format by freezing and subsequent thawing. Derived crude extracts were cleared by centrifugation. Supernatants were added to wells of a microtiterplate coated with 50 ng/ml of rhIL-1 beta (Peprotech) per well. After washing, bound scFvs are detected by ProteinL-HRP and binding to rhIL-1 beta quantified by BM Blue POD Substrate (Roche Applied Science).

[2] = molecular target: T1, recombinant human IL-1 beta; test: ELISA, cleared E. coli lysate on coated rhIL-1 beta (FIG. 6)

binding [1]: binds
binding [2]: binds
B1: DLX2686 (scFv)
scFv: MEIVMTQSPSTLSASVGDRVTITCQASQSISSWLSWYQQKPGKAPKLLIYKASTLASGVPSRFSGSGSGTEFTLTISSLQPDDFATYYCQNAGGGVSIAFGQGTKLTVLGGGGGSGGGGSGGGGSGGGGSEVQLVESGGGLVQPGGSLRLSCTVSGFSLSSYAMSWVRQAPGKGLEWIGIIYDSASTYYASWAKGRFTISKDTSKNTLYLQMNSLRAEDTAVYFCARERQIFSGDMDGWGQGTTVTVSS
